What is called IC50 is the concentration at which inhibition is half-maximal. Lower therefore signals greater potency.

Format in all cases: cell-based
The test system of one assay is HCT116 cells. The experiment in a line: AlamarBlue cytotoxicity assay, HCT116. To be noted: Homo sapiens, HCT-116, 48 hr treatment. The protocol:
(§1) Cervical (HeLa), ovarian (A2780), and lung (A549) cancer cells, obtained from Biotechnology Laboratory stocks, Biotechnology Research Center (Mashhad, Iran) and colon (HCT116) obtained from National Cell Bank of Iran (NCBI), Pasteur Institute of Iran, Tehran (Iran).
(§2) In vitro cytotoxicity tests were performed using a nonfluorescent substrate, AlamarBlue® (Paisely, UK) cell viability assay as described with some modifications (16). […] After counting, the cells were seeded in 96-well microplates (1 × 10^4 cells/100 µl in each well) and cultivated for 24 hr before addition of test compounds. Triplicate plates for three wells of each concentration were seeded. […] Thereafter, 10 μl of AlamarBlue® reagent was added and incubated for another 4 hr. Then, absorbance was measured at 600 nm using an ELISA microplate reader (Epoch; USA). IC50 values were calculated by nonlinear regression analysis using GraphPad prism (Version 6.0) software.
(Alamar Blue is a resazurin reagent that responds to reducing activity.)

The subject of the next assay is A2780 cells. The experiment in a line: AlamarBlue cytotoxicity assay, A2780. To be noted: Homo sapiens, 48 hr treatment. The protocol: as §1, §2
For a further assay, the system named is A549 cells. Kind of assay: AlamarBlue cytotoxicity assay, A549. The settings on record: Homo sapiens, 48 hr treatment. On the procedure:
as §1, §2

A further assay deals with HeLa cells. The experiment in a line: AlamarBlue cytotoxicity assay, HeLa. To be noted: Homo sapiens, 48 hr treatment. The protocol: as §1, §2

For the compound `O=C(CCCCCCC(=O)Nc1ccccc1)NO` [Vorinostat, reference compound], the IC50 amounted to 2.98 ± 1.02 µM in the assay with HCT116 cells, 8.02 ± 9.8 µM with A2780 cells, 6.83 ± 6.6 µM with A549 cells and 2.43 ± 5.02 µM in the assay on HeLa cells.

The record behind these values is publication PMC6437461, “Histone deacetylase inhibitory and cytotoxic activities of the constituents from the roots of three species of Ferula” (Iranian Journal of Basic Medical Sciences, 2019).
